PubChem BioAssay AID1224830, NIAID | 2016
Assay: 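Regulators of TLR4 signalling towards TNF-alpha in macrophage-like cells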 (primary screen). System: human THP-1 monocytic leukaemia cells, TNF dual-luciferase reporter clone, PMA-differentiated to macrophage-like cells. Reagents: siRNA pool against human genes, 50 nM. Duration: LPS for 4 h, given about 3 days after siRNA transfection. Treatment: bacterial LPS (TLR4 ligand), 10 ng/ml. Measured: 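Ratio of firefly to renilla light, scaled to the plate median and expressed as a robust z-score per replicate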. Scale: TNF reporter robust z-score: higher = stronger TNF reporter response to LPS. Hit rule: 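Each well counts as active if its z-score is over 2.8 or under -1.5; controls are left without a call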.
This is an unselected part of about 18,000 reagents tested. Of all reagents, about 2,900 (16%) got an active call. 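Calls are made per well; low scores hint the gene aids the LPS response, high scores that it dampens it.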 Repeated entries: four replicate wells of each siRNA pool.

target gene | TNF reporter robust z-score | Outcome
SLC44A1 | 0.26 | inactive
SLC44A1 | -0.62 | inactive
SLC44A1 | -1.48 | inactive
SLC44A1 | 0.84 | inactive
ABHD3 (abhydrolase domain containing 3, phospholipase) | 0.02 | inactive
ABHD3 (abhydrolase domain containing 3, phospholipase) | -0.1 | inactive
ABHD3 (abhydrolase domain containing 3, phospholipase) | -0.66 | inactive
ABHD3 (abhydrolase domain containing 3, phospholipase) | 0.2 | inactive
FABP6 (fatty acid binding protein 6) | -1.16 | inactive
FABP6 (fatty acid binding protein 6) | -0.46 | inactive
FABP6 (fatty acid binding protein 6) | -0.34 | inactive
LIMS3 (LIM zinc finger domain containing 3) | -0.92 | inactive
LIMS3 (LIM zinc finger domain containing 3) | -0.57 | inactive
LIMS3 (LIM zinc finger domain containing 3) | -0.48 | inactive
LIMS3 (LIM zinc finger domain containing 3) | -0.18 | inactive
CCZ1 (CCZ1 vacuolar protein trafficking and biogenesis associated) | -0.71 | inactive
CCZ1 (CCZ1 vacuolar protein trafficking and biogenesis associated) | 1.26 | inactive
CCZ1 (CCZ1 vacuolar protein trafficking and biogenesis associated) | 0.24 | inactive
CCZ1 (CCZ1 vacuolar protein trafficking and biogenesis associated) | 0.13 | inactive
PLEKHA5 (pleckstrin homology domain containing A5) | -0.05 | inactive
PLEKHA5 (pleckstrin homology domain containing A5) | -0.84 | inactive
PLEKHA5 (pleckstrin homology domain containing A5) | -0.38 | inactive
PLEKHA5 (pleckstrin homology domain containing A5) | -0.16 | inactive
OR51L1 (olfactory receptor family 51 subfamily L member 1) | -0.83 | inactive
OR51L1 (olfactory receptor family 51 subfamily L member 1) | -0.75 | inactive
OR51L1 (olfactory receptor family 51 subfamily L member 1) | -0.94 | inactive
OR51L1 (olfactory receptor family 51 subfamily L member 1) | -0.27 | inactive
ADAM21 (ADAM metallopeptidase domain 21) | 0.02 | inactive
ADAM21 (ADAM metallopeptidase domain 21) | 0.77 | inactive
ADAM21 (ADAM metallopeptidase domain 21) | -0.88 | inactive
ADAM21 (ADAM metallopeptidase domain 21) | -0.44 | inactive
TGFBR2 (transforming growth factor beta receptor 2) | 1.03 | inactive
TGFBR2 (transforming growth factor beta receptor 2) | 1.88 | inactive
TGFBR2 (transforming growth factor beta receptor 2) | 0.76 | inactive
TGFBR2 (transforming growth factor beta receptor 2) | -0.65 | inactive
DEDD (death effector domain containing) | -0.16 | inactive
DEDD (death effector domain containing) | -0.83 | inactive
DEDD (death effector domain containing) | -0.9 | inactive
DEDD (death effector domain containing) | -0.97 | inactive
AARSD1 (alanyl-tRNA synthetase domain containing 1) | -0.03 | inactive
AARSD1 (alanyl-tRNA synthetase domain containing 1) | 0.32 | inactive
AARSD1 (alanyl-tRNA synthetase domain containing 1) | -0.43 | inactive
AARSD1 (alanyl-tRNA synthetase domain containing 1) | 0.14 | inactive
DEDD2 (death effector domain containing 2) | -0.24 | inactive
DEDD2 (death effector domain containing 2) | 0.03 | inactive
DEDD2 (death effector domain containing 2) | -0.84 | inactive
DEDD2 (death effector domain containing 2) | 1.28 | inactive
